According to PubChem BioAssay AID1671190 (National Center for Advancing Translational Sciences (NCATS), 2021):
Among all 580,000 compounds or so, about 6,100 (1.1%) were called active. This list was built around the results that the source calls inconclusive (neither active nor inactive); the mix of calls is not that of the screen. Calls follow the shape of the dose curve; as a rule, active = well fitted inhibition curve with a large enough effect; inconclusive = small, poorly fitted or top-dose-only effect, or another doubt; inactive = no such curve, though single readings can be large or run the other way. A potency beside an inconclusive call is a rough fit, not a confirmed value.

Amino acid sequences for entries named in this document (tags omitted).
UniProt P18054, whole entry, looked up: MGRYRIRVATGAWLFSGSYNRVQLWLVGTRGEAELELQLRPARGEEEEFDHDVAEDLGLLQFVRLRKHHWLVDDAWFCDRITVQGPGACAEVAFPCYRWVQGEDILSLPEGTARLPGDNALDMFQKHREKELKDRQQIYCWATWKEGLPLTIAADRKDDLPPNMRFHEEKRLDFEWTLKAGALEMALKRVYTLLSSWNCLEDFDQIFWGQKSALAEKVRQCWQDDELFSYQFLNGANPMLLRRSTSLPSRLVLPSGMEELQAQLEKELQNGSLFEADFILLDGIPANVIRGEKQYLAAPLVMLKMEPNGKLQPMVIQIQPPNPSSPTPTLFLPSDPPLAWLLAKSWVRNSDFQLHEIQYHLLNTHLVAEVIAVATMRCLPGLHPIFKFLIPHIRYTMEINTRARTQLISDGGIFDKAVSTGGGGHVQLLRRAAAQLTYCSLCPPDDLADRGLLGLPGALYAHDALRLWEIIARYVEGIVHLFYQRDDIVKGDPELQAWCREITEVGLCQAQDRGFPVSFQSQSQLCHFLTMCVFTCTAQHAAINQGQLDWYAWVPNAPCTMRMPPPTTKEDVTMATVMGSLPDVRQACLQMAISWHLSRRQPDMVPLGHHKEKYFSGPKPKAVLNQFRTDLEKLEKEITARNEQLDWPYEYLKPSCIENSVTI

These compounds were tested against Polyunsaturated fatty acid lipoxygenase ALOX12 (Homo sapiens) (UniProt P18054) (assay: Primary qHTS assay for inhibitors of human arachidonate 12S-lipoxygenase (ALOX12): Round 2). Settings: purified 12hLO, xylenol orange hydroperoxide absorbance; activity change, negative = inhibition: at 108 µM (top of the series) unless noted.
Outline: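 Purified human 12hLO at 150 nM in 25 mM Hepes, 0.01% Triton X-100, pH 7.0, preincubated 15 min at room temperature with compound. Reaction started with 40 uM arachidonic acid, 30 min at room temperature. Hydroperoxide measured by Fe-xylenol orange, 573/405 nm absorbance ratio.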
% is scaled to controls: 0 for no effect and ±100 for the full control effect; potency is read from the fitted curve at half-maximal effect.

Structure (SMILES) | activity change, negative = inhibition | Potency
CC1CC(C)CN(C(=O)COC(=O)c2ccc3c(c2)OCO3)C1 (stereo not drawn) | inactive: 0% | –
O=C(Cc1ccccc1)Nc1ccc2c(c1)OC1(CCCC1)O2 | inactive: -25.5% | –
Cc1ccc2c(Cl)cc(Cl)c(OCC(=O)N(C(C)C)C(C)C)c2n1 | – | inactive
Cc1cc(=O)oc2c(CN3CC(C)OC(C)C3)c(O)c(Cl)cc12 (stereo not drawn) | – | inconclusive: 89.1 µM [inhibitor, partial curve, poor fit]
CN(C)CCCNC(=O)N1c2ccccc2Sc2ccccc21 | – | inconclusive: 112 µM [inhibitor, single point]
O=c1ccn(O)cc1[N+](=O)[O-] | inactive: -18.6% | –
Cc1ccc(Cl)cc1NC(=O)CSC(N)=O | – | inconclusive: 10 µM [inhibitor, full curve, poor fit]
Cc1cccc(NC(=O)c2ccc3c(c2)NC(=O)CS3)n1 | – | inconclusive: 2.82 µM [inhibitor, full curve, poor fit]
Cc1sc2nc(C)n(/N=C/N(C)C)c(=O)c2c1C | inactive: 0% | –
COc1ccc(CCNC2=NCCS2)cc1OC | – | inconclusive: 141 µM [inhibitor, single point]
Cc1cc(C)c(C)c(S(=O)(=O)N2CCN(CC(=O)NC(=O)NC(C)(C)C)CC2)c1C | – | inconclusive: 112 µM [inhibitor, partial curve, poor fit]
C=CCn1c(-c2ccoc2C)n[nH]c1=S | inactive: -21% | –
COc1ccc(-c2cc(C(=O)NCC(O)CO)c3ccccc3n2)cc1 (stereo not drawn) | – | inconclusive: 25.1 µM [inhibitor, partial curve, poor fit]
COc1ccc(C)cc1-n1nnc(C(=O)Nc2ccc(Br)cc2)c1C | – | inconclusive: 35.5 µM [inhibitor, partial curve, poor fit]
Cc1nc2ccc3nc(C)sc3c2s1 | – | inconclusive: 28.2 µM [inhibitor, partial curve, poor fit]
COC(=O)c1ccc2c(c1)NC(=O)CS2 | inactive: -10.8% | –
COc1ccc(C(=O)N2CCOC3(CCN([S+](C)(=O)[O-])CC3)C2)cc1 | inactive: 1.6% [at 6.33 µM] | –
O=S(=O)(c1ccc2oc(=S)[nH]c2c1)N1CCCCC1 | inactive: -15.5% | –
Cc1ccc(NC(=O)c2ccc(=O)n(CCOc3ccccc3)n2)cc1F | – | inconclusive: 50.1 µM [inhibitor, partial curve, poor fit]
CCn1ncc(N2CCC(NC(=O)c3cccc(OC)c3OC)CC2)cc1=O | – | inconclusive: 31.6 µM [inhibitor, partial curve, poor fit]
COC(=O)c1cc2oc(C)cc2n1Cc1ccccc1 | – | inconclusive: 22.4 µM [inhibitor, full curve, poor fit]
Cc1ccc(CNC(=O)c2ccc(-n3cccc3)cc2)cc1 | – | inconclusive: 70.8 µM [inhibitor, partial curve, poor fit]
CCOC(=O)c1c(SCC(=O)Nc2nccs2)nc(C)c(C)c1C | – | inconclusive: 25.1 µM [inhibitor, partial curve, poor fit]

Structure (SMILES) | activity change, negative = inhibition | Potency
CC(=O)Nc1ccc(CNCc2csc(C)n2)cc1 | – | inconclusive: 2.82 µM [inhibitor, full curve, poor fit]
CCOC(=O)C1=C(C)Nc2ccccc2S1 | – | inconclusive: 3.98 µM [inhibitor, full curve, poor fit]
COc1ccc(CCN(Cc2ccccn2)C(=S)Nc2cccc(SC)c2)cc1OC | inactive: 0% | –
CC(=O)Nc1ccc(CNc2nc(NCc3cccs3)nc3ccsc23)cc1 | – | inconclusive: 56.2 µM [inhibitor, partial curve, poor fit]
CC(C)CCn1cnc2c1c(=O)n(CC(=O)NCC1CCCO1)c(=O)n2Cc1ccccc1 (stereo not drawn) | inactive: 14.6% | –
Cc1sc(NC(=O)c2ccc(CN(C)C)cc2)nc1-c1ccc(Br)cc1 | – | inconclusive: 50.1 µM [inhibitor, partial curve, poor fit]
COc1ccc(-c2nc(CS(=O)CC(=O)NCc3ccccc3OC)c(C)o2)cc1 (stereo not drawn) | – | inactive
CCN(CC)S(=O)(=O)c1cc(NS(=O)(=O)c2ccc(C)cc2C)ccc1C | – | inconclusive: 141 µM [inhibitor, partial curve, poor fit]
COC(=O)COc1ccc(C2Nc3c(Cl)ccc(C(=O)O)c3C3C=CCC32)cc1 (stereo not drawn) | – | inconclusive: 28.2 µM [inhibitor, partial curve]
C[C@H]1C=CC(=O)O[C@H]1c1ccccc1 | inactive: -0.38% | –
CC(C)C(NC(=O)CCN1C(=O)c2ccccc2C1=O)c1ccccc1 (stereo not drawn) | – | inconclusive: 3.55 µM [inhibitor, full curve, poor fit]
CCN(CC)S(=O)(=O)c1ccc(N/N=C/c2ccc(O)cc2)nc1 | – | inconclusive: 89.1 µM [inhibitor, partial curve, poor fit]
CCCNS(=O)(=O)c1ccc(OCC(=O)Nc2ccccc2F)cc1 | inactive: -4.99% | –
CC(C)[C@H](NC(=O)c1ccccc1Cl)C(=O)OCC(=O)NCc1ccc2c(c1)OCO2 | – | inconclusive: 112 µM [inhibitor, partial curve, poor fit]
CC(C)(C)N=C1NN=C(c2ccc(S(=O)(=O)N3CCCCC3)cc2)CS1 | – | inconclusive: 17.8 µM [inhibitor, partial curve, poor fit]
COc1nccnc1NC1CCN(C(=O)c2ccccc2C)CC1 | inactive: 34.2% | –
COc1cc2oc(=O)cc(CN3CCN(c4ccccc4F)CC3)c2cc1Cl | – | inconclusive: 39.8 µM [inhibitor, partial curve]
Cc1ccc2c(c1)c1ccc3c(c1n2C)C(=O)C=CC3=O | – | active: 1.12 µM
CCCCN(C)C(=O)c1ccc(Nc2nc(C(N)COCc3ccccc3)cs2)nc1 (stereo not drawn) | – | inconclusive: 112 µM [inhibitor, partial curve, poor fit]
O=C(Nc1ccccc1C(=O)N1CCCCCC1)c1ccc(F)cc1 | – | inconclusive: 50.1 µM [inhibitor, partial curve, poor fit]
CN1C(=O)c2cccc3c(S(=O)(=O)Nc4ccccn4)ccc1c23 | – | inconclusive: 44.7 µM [inhibitor, single point]
O=C(Nc1ccc(-c2cscn2)cc1)C1CCCN(Cc2ccccc2)C1 (stereo not drawn) | inactive: 5.96% | –
NC(=O)c1ccc[n+](Cc2ccc(-c3ccccc3)cc2)c1 | – | inconclusive: 25.1 µM [inhibitor, single point]

Three structures already listed, arranged by molar mass, high to low.
Structure (SMILES) | activity change, negative = inhibition | Potency
COc1ccc(C)cc1-n1nnc(C(=O)Nc2ccc(Br)cc2)c1C | – | inconclusive: 35.5 µM [inhibitor, partial curve, poor fit]
CN1C(=O)c2cccc3c(S(=O)(=O)Nc4ccccn4)ccc1c23 | – | inconclusive: 44.7 µM [inhibitor, single point]
Cc1ccc(Cl)cc1NC(=O)CSC(N)=O | – | inconclusive: 10 µM [inhibitor, full curve, poor fit]

(list continues)

Structure (SMILES) | activity change, negative = inhibition | Potency
COc1ccc(C(CNC(=O)c2ccco2)N2CCCCC2)cc1 (stereo not drawn) | – | inconclusive: 112 µM [inhibitor, single point]
O=C(NCc1cc(F)cc(F)c1)c1nc(-c2ccc(F)cc2)c2ccccn12 | inactive: -7.52% | –
C=CCn1c(C)cc(/C([O-])=C(/C(=S)Nc2ccc(OC(F)F)cc2)[n+]2ccc(N(C)C)cc2)c1C | – | inconclusive: 14.1 µM [inhibitor, full curve]
COCCNC(=O)c1ccccc1NC(=O)c1nc(-c2ccccc2)oc1C | – | inconclusive: 0.631 µM [inhibitor, full curve, poor fit]
OCC1(Cc2ccccc2F)CCCN(Cc2c(F)ccc(F)c2F)C1 (stereo not drawn) | – | inconclusive: 70.8 µM [inhibitor, partial curve, poor fit]
COc1ccc(S(=O)(=O)N2CCCCC2)cc1NC(=O)c1ccccc1 | – | inconclusive: 2.82 µM [inhibitor, partial curve, poor fit]
CCc1ccc(OCC(O)CN2CCN(c3ccccn3)CC2)cc1 (stereo not drawn) | – | inconclusive: 35.5 µM [inhibitor, partial curve, poor fit]
Cn1c(=O)[nH]c(=O)c2c1nc(N(CCO)Cc1ccccc1)n2CCCc1ccccc1 | inactive: 80.7% | –
O=C(CN(Cc1ccccc1)C(=O)CNS(=O)(=O)c1ccc(F)cc1)NCC1CCCO1 (stereo not drawn) | – | inconclusive: 141 µM [inhibitor, partial curve, poor fit]
CCCC1(c2ccccc2)NC(=O)N(C/C=C/Cl)C1=O (stereo not drawn) | – | inconclusive: 7.94 µM [inhibitor, full curve, poor fit]
c1ccc(Cn2c(-c3cccs3)nc3nc4ccccc4nc32)cc1 | inactive: 0% | –
Nc1cc(=O)[nH]c(=O)n1-c1ccc(Cl)cc1 | inactive: 0% | –
NS(=O)(=O)c1ccc(N/N=C/c2cccc(O)c2)c([N+](=O)[O-])c1 | – | inconclusive: 39.8 µM [inhibitor, partial curve, poor fit]
O=C1COc2ccc(NCc3cccs3)nc2CN1Cc1ccc(F)cc1 | – | inconclusive: 39.8 µM [inhibitor, partial curve, poor fit]
Cn1cccc1CN1CCCC(COc2ccccc2C(=O)N2CCCCC2)C1 (stereo not drawn) | – | inconclusive: 14.1 µM [inhibitor, partial curve]
Cn1c(=O)oc2cc(S(=O)(=O)Nc3ccc(C(=O)O)cc3)ccc21 | – | inconclusive: 0.708 µM [inhibitor, full curve, poor fit]
COc1ccc(-c2c(C)oc3cc(O)cc(O)c3c2=O)cc1OC | – | inconclusive: 14.1 µM [inhibitor, partial curve, poor fit]
CCN1CCN(c2ccc(Cl)cc2NC(=O)c2ccc(-n3nc(C)cc3C)cc2)CC1 | inactive: 313% | –
COc1ccccc1N=CC=C1OC(C)(C)C(C)(C)O1 | – | inconclusive: 12.6 µM [inhibitor, partial curve, poor fit]
Cc1ccc2[nH]cc(CCNC(=O)/C=C/c3ccccc3F)c2c1 | – | inconclusive: 89.1 µM [inhibitor, partial curve, poor fit]
COc1ccc(C(CCNC(C)c2ccccc2)c2ccc(F)cc2)cc1 (stereo not drawn) | – | inconclusive: 44.7 µM [inhibitor, partial curve, poor fit]
O=C(Nc1ccc(S(=O)(=O)Nc2cnc3ccccc3n2)cc1)c1ccc(Cl)cc1Cl | – | inconclusive: 126 µM [inhibitor, single point]
